We go through one molecule from article PMC12344264, “Mechanistic, in-silico and in vitro studies with nitrofurans reveal potent leishmanicidal activity and inhibition of trypanothione reductase” (International Journal for Parasitology: Drugs and Drug …, 2025).

Broadly, the CC50 is the concentration that lowers cell viability or growth by half.

Series [1] is described as follows: Cytotoxicity in primary splenocytes, alamarBlue, 72 h. The following applies: mouse, uninfected mice. The format is cell-based. How it is done:
(§1) For cytotoxicity tests, several mammalian cell lines were used. […] Primary cell cultures were also used to evaluate cytotoxicity. […] BMDM cells were differentiated for one week with 30 % […] from L929 cell line.
(§2) The in vitro cytotoxicity of the selected nitrofurans was evaluated in HepG2, RAW 264.7 cells, splenocytes and BMDM. In each well of a 96-well microtitre plate, 100 μL containing 10,000 HepG2 or RAW 264.7 cells were incubated for 24h at 37 °C and 5 % CO2 to allow the cells to settle. For primary cells, 100 μL containing 100,000 BMDM or 1,000,000 splenocytes were added to each well. Subsequently, […] of one-half serial dilutions of each compound diluted in DMEM (for HepG2 cells), RPMI medium (for RAW cells), splenocyte medium (for splenocytes) or BMDM medium supplemented with 10 % GM-CSF (for BMDM), were added to each well. The cytotoxic effect of the compounds was measured after 72 h of incubation at 37 °C and 5 % CO2. […] Fluorescence was measured using a Varioskan Lux spectrophotometer (ThermoFisher Scientific, Waltham, MA, USA). […]
(§3) All experiments were carried out in triplicate and included at least three technical replicates. […] The SI was calculated from the CC50/EC50 ratio.
(Alamar Blue is a resazurin reagent that responds to reducing activity.)

A further series relates to S. typhimurium TA98. Description: Ames mutagenicity test (Ames 384-ISO Well Test). The following applies: without S9 mix. For orientation: The Ames test uses bacterial strains that need an amino acid and regain growth without it when mutated back.
Series [2] is described as follows: Cytotoxicity, alamarBlue, 72 h. The series is classed as cell-based. The following applies: human, read-out: HepG2 cells CC50. How it is done:
as §1, §2, §3

The next series relates to S. typhimurium TA100. Description: Ames mutagenicity test (Ames 384-ISO Well Test). The following applies: without S9 mix.

For `O=C1OCCN1/N=C/c1ccc([N+](=O)[O-])o1` [Furazolidone], the CC50 at 72 h in series [1] worked out at 44.8 ± 3.93 µM; in series [2], 42.5 ± 6.81 µM. Moreover, the “Mutagenic effect TA98” value was “+ (0.01)” in the series with S. typhimurium TA98 (0.025 μM); “+ (0.05)” in the series with S. typhimurium TA98 (0.05 μM); “+ (0.05)” with S. typhimurium TA98 (0.1 μM); “- ^b” in the series with S. typhimurium TA98 (1.00 μM); “- ^b” with S. typhimurium TA98 (10.0 μM). Moreover, the “Mutagenic effect TA100” value with S. typhimurium TA100 (0.025 μM) was “+ (0.001)”; with S. typhimurium TA100 (0.05 μM) it was “+ (0.001)”; in the series on S. typhimurium TA100 (0.1 μM), “+ (0.05)”; in the series on S. typhimurium TA100 (1.00 μM), “- ^b”; in the series on S. typhimurium TA100 (10.0 μM) it was “- ^b”.
